Patent US6369109B1, “Betulinic acid and derivatives thereof useful for the treatment of neuroectodermal tumor” (Deutsches Krebsforschungszentrum Stiftung des Offentlichen …, priority 1998, dated 2002)
“Also recorded” adds a separate entry of the source. At least one compound was matched to its structure with a doubt left.

How the values were obtained:
[1] = system: small cell lung carcinoma (H-146); assay: Western blot of FLICE and PARP cleavage; type: cell-based; settings: 10 μg/ml, 24 h; FIG. 6B
lymphoid cell lines = assay: Mitochondrial alterations in intact cells; type: cell-based
[2] = system: Bax, Bcl-x, Bcl-2 in SH-EP neuroblastoma cells; assay: Western blot of Bax, Bcl-x and Bcl-2; type: cell-based, human; settings: 10 μg/ml; FIG. 5C
[3] = system: cytochrome c in SHEP cells; assay: Drug-induced release of cyt c from mitochondria in cells (Western blot); type: cell-based, human; settings: 0.5 μg/ml Doxo or 10 μg/ml Bet A; FIG. 16A
Experimental: Cells were lysed for 30 mm at 4° C. in PBS with 0.5% Triton X (Serva, Heidelberg, Germany) and 1 mM PMSF (Sigma, Deisenhofen, Germany) followed by high-speed centrifugation. Membrane proteins were eluted in buffer containing 0.1 M glycine, pH 3.0 and 1.5 M Tris, pH 8.8. Protein concentration was assayed using bicinchoninic acid (Pierce, Rockford, Ill.). 40 μg protein per lane was separated by 12% or 15% SDS-PAGE and electroblotted onto nitrocellulose (Amersham, Braunschweig, Germany). Equal protein loading was controlled by Ponceau red staining of membranes. […]
For isolation of mitochondria, cells (3×10^8 per sample) were washed twice with ice-cold PBS and resuspended with five volumes of buffer A (50 mM Tris buffer, 1 mM EGTA, 5 mM 2-mercaptoethanol, 0.2% BSA, 10 mM KH2PO4, pH 7.6, 0.4 M sucrose) and allowed to swell on ice for 20 min. […] The protein concentration of mitochondria or cytosolic extracts was determined by the Bradford method. […]

[4] = system: SH-EP neuroblastoma cells; assay: Specific apoptosis, FACS analysis of propidium iodide-stained nuclei; type: cell-based, human
Experimental: Quantification of DNA fragmentation was performed by FACS analysis of propidium iodide stained nuclei as described in Nicoletti et al, 1991, J. Immunol. Methods. 139: 271-279. Cells were analyzed for DNA content by flow. cytometry (FACScan, Becton Dickinson, Heidelberg, Germany) using CELLQuest software. Early apoptotic changes were identified by staining with biotinylated annexin V (Bender Med Systems, Vienna, Austria) following the manufacturer's instructions. Annexin V binds to exposed phosphatidylserine on the surface of apoptotic cells. Koopman et al, 1994, Blood. 84:1415-1420. Cells were analyzed by flow cytometry (FAC-Scan. Becton Dickinson) using CELLQuest software.
Cells were treated with 10 μg/ml betulinic acid for 72 h. Apoptosis was assessed by FACS analysis of propidium iodide-stained nuclei. Percentage of specific apoptosis was calculated as follows: experimental apoptosis (%) −spontaneous apoptosis in medium (%)/[100%−spontaneous apoptosis in medium (%)]×100%. […]
Cells were incubated for indicated times with doxorubicin, betulinic acid or anti-APO-1 and harvested by trypsinization using 0.05% trypsin and 0.02% EDTA without Ca^2+and Mg^2+(Life Technologies, Inc.). Quantification of DNA fragmentation was performed by FACS analysis of propidium iodide stained nuclei as previously described in Nicoletti et al., J. ImmunoL Methods 139:271-279, using CELLQuest software (Becton Dickinson, Heidelberg, Germany).
SHEP cells transfected with Bcl-2 or BCl-XL or a neomycin resistance vector only (Neo) were treated with 0.5 μg/ml Doxorubicin or 10 μg/ml Betulinic acid for 48 h (A) or 24 h (B and C). Cells transfected with a neomycin resistance vector only (Neo) were treated in the presence or absence of 50 μm BA or 60 μm zVAD-fmk. Nuclear apoptosis was determined by FACS analysis or propidium iodide-stained DNA content in intact cells (A) or in a CFS incubating isolated nuclei with mitochondria from cells treated with Doxo or betulinic acid (C). ΔΨm was determined by staining cells with the potential-sensitive fluorochrome DiOC6(3) (B).

C=C(C)[C@@H]1CC[C@]2(C(=O)O)CC[C@]3(C)[C@H](CC[C@@H]4[C@@]5(C)CC[C@H](O)C(C)(C)[C@@H]5CC[C@]43C)[C@@H]12 [betulinic acid, 3β-3-hydroxylup-20(29)-en-28-oic acid]
cleavage of FLICE and PARP [1]: but not in tumor cells resistant to betulinic acid | mitochondrial alterations when added to intact cells (lymphoid cell lines): but not in lymphoid cell lines | Bax expression [2]: up-regulated | Bcl-2 expression level [2]: unaffected | Bcl-Xs expression [2]: up-regulated | Bcl-xL expression level [2]: unaffected | mitochondrial cytochrome c levels after stimulation [3]: mitochondrial cytochrome c levels declined | nuclear fragmentation in intact SHEP cells ([4]; 0.5 μg/ml doxorubicin or 10 μg/ml betulinic acid, 48 h, FIG. 12A): induced loss of ΔΨm and nuclear fragmentation | effect of CD95 blockage by F(ab′)2 anti-APO-1 on drug-induced apoptosis ([4]; 10 μg/ml antibody fragments 1 h before drug, 10 μg/ml betulinic acid, 50 μg/ml VP-16, 10 μg/ml cisplatinum, 0.5 μg/ml doxorubicin, 72 h, FIG. 3B): is not affected | response to betulinic acid (specific apoptosis) ([4]; 10 μg/ml, 72 h, FIG. 1A, 6A): highly responsive; also recorded: responsive toward betulinic acid
